Article PMC10433880
No constants are given. Whether binding was seen depends on the method and setting. Binding seen in cells or lysates may run through a third protein. Some results given as binding are weak or reduced against the parent protein; the word gives no strength.

Molecular target: T1, Takeda G protein-coupled receptor 5 (mouse (endogenous in mouse liver tissue)) (UniProt Q80SS6)
T1 sequence: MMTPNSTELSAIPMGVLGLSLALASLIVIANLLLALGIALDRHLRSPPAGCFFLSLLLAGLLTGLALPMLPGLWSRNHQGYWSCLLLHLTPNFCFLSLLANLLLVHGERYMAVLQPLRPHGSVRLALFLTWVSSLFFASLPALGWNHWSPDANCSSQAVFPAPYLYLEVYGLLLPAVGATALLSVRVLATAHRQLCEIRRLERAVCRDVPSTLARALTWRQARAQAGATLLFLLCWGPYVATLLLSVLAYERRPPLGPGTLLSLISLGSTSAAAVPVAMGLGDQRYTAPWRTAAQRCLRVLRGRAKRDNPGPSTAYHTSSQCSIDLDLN
Test: co-IP; co-immunoprecipitation with anti-TGR5 from liver tissue of Mdr2+/+, Mdr2-/- and hP-MSC-treated Mdr2-/- mice; Western blotting of TGR5 and Pellino3; endogenous proteins

B1: Pellino3 (protein, UniProt Q8BXR6 1-445)
chain: MVLEGNPDVGSPRTSDLQHPGSQGSCILSCPGEEALAGEEPIKYGELIVLGYNGCLASGDKGRRRSRLALSRRPHANGVKPDVMHHISTPLVSKALSNRGQHSISFTLSRSHSVIVEYTHDSDKDMFQIGRSTENMIDFVVTDTSPGGGATEGPSAQSTISRYACRILCDRRPPYTARIYAAGFDASSNIFLGERAAKWRTPDGLMDGLTTNGVLVMHPAGGFSEDSAPGVWREISVCGNVYTLRDSRSAQQRGKLVENESNVLQDGSLIDLCGATLLWRTPAGLLRAPTLKQLEAQRQEANAARPQCPVGLSTLAFPSPARGRTAPDKQQPWVYVRCGHVHGYHGWGCRRERGPQERECPLCRLVGPYVPLWLGQEAGLCLDPGPPSHAFAPCGHVCSEKTARYWAQTPLPHGTHAFHAACPFCGAWLTGELGCVRLIFQGPLD
In the case of B1, the binding is reported as “binds”.
